According to article PMC7716890 (Clinical Pharmacokinetics, 2020):
“Also recorded” adds a separate entry of the source. Where two headings read alike, the source gives them in different places.

Experiments:
[1] = cocktail with cimetidine vs cocktail alone
[2] = not given; remark: listed apart in the source
[3] = cocktail (furosemide 1 mg) with probenecid vs cocktail alone
[4] = furosemide 40 mg with probenecid vs alone

NS(=O)(=O)c1cc(C(=O)O)c(NCc2ccco2)cc1Cl [Furosemide, furosemide]
effect of cimetidine on systemic exposure [1]: no effect; also recorded: no inhibition | increase of Cmax (cocktail with single-dose rifampin vs cocktail alone): 35% | effect of verapamil on systemic exposure (cocktail with single-dose verapamil vs cocktail alone): no effect | increase of AUC0–tz [2, 3]: 172% | increase of Cmax [2, 3]: 23% | increase of AUC0–tz [2, 4]: 203% | increase of Cmax [2, 4]: 47%
